Data from patent publication US20230077983A1, “METHODS OF TREATING AND PREVENTING ENGRAFTMENT ARRHYTHMIAS” (UNIVERSITY OF WASHINGTON, priority 2020, published 2023).

Tested on: engraftment arrhythmia (EA)
Conditions: pig, in vivo
Protocol: A number of anti-arrhythmic therapies were tested to determine their efficacy in treating and preventing engraftment arrhythmias.
The objective of this study was to identify a pharmacological regimen to attenuate arrhythmias following cardiac remuscularization therapy. This study was designed in two phases: the first, to observe the natural history of EA and screen various antiarrhythmic agents for efficacy and the second, test for efficacy (FIG. 16). All subjects were 30-40 kg castrated male Yucatan minipigs between 6-13 months of age (S&S Farms). In Phase 1, nine subjects underwent cardiac remuscularization therapy with 500×10^6 hESC-CM delivered by direct surgical transepicardial injections or later, by percutaneous transendocardial injections. The first four subjects (one non-infarcted and three infarcted) were followed to learn the natural history of EA and establish clinical endpoints and parameters for the Phase 2 drug trial. The subsequent five subjects underwent systematic dosing with antiarrhythmic agents with continuous electrocardiography (ECG) monitoring to determine effect on rhythm and rate (Table 2).
In addition, the funny current/HCN4 channel antagonist, ivabradine, was tested (Tables 1 and 2). This series was not meant to be definitive but rather to rapidly identify candidate agents. […]

CCCNCC(O)COc1ccccc1C(=O)CCc1ccccc1 (stereo not shown) [Propafenone]
toxicity in the screen: substantial gastrointestinal toxicity
